Assay results published in PubChem BioAssay AID1347076 (National Center for Advancing Translational Sciences (NCATS), 2019).
Hit rate of the full screen: of about 400,000 compounds, about 13,000 (3.2%) were called active. Inconclusive means that the source gave no clear call. Such entries were picked first, then a sample of the others. The call rests on the fitted dose curve; in most records, active means well fitted cell-killing curve with a large enough effect; inconclusive means small, poorly fitted or top-dose-only effect, or effect the other way; inactive means flat fitted curve, though single readings scatter. Where the call is inconclusive, the potency comes from a doubtful curve fit.

Assay: qHTS assay for MDR1-selective chemotherapeutics: Primary screen using the drug-selected MDR subline cells KB-V1; further: nearly all actives have a fitted effect of over 60% in size
Settings: KB-V1 MDR cells viability, CellTiter-Glo, 72 h; activity change, negative = cytotoxicity: at 46.1 µM (top of the series)
In short: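 Readout: CellTiter-Glo luminescence, 10 min after addition. Cells: KB-V1 MDR subline, 72 h at 37 degrees C with compound. Analysis: corrected, normalized data fitted to concentration-effect curves.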
On the % scale 0 is the no-effect control and ±100 the full control effect; potency means the concentration at half of the fitted maximal effect.

Row | SMILES | Potency | activity change, negative = cytotoxicity
1 | Cc1ccc(NC(=O)COc2cccc3c2OC(C)(C)C3)c(O)c1 | active: 18.4 µM | 
2 | CCn1c(CSCc2ccc(C)cc2)nnc1SCC(=O)NCc1ccccc1 | inconclusive: 23.1 µM [rising, partial curve] | 
3 | O=C(Cn1c(-c2ccccc2)c[n+]2ccsc12)c1ccccc1 | inactive | 
4 | Cc1ccc(NC(=O)Cn2c(=O)ccc3cc(S(=O)(=O)N4CCCC4)ccc32)cc1N(C)C | inactive | 
5 | Cc1ccc(CC#N)c(-c2c(CC#N)ccc(C)c2C)c1C | inconclusive: 18.4 µM [cytotoxic, partial curve, poor fit] | 
6 | Cn1c2c(c3cnc4cc(Cl)ccc4c31)CN(Cc1ccc(Cl)cc1)CC2 | inactive | 
7 | Cc1ccc(NC(=O)C2CCCN(S(=O)(=O)c3ccc4c(c3)CCCC(=O)N4)C2)cc1Cl (stereo not given) | inconclusive: 29.1 µM [cytotoxic, single point] | 
8 | Cc1ccc(N2CC(C(=O)Nc3cc(C(F)(F)F)ccc3N3CCCC3)CC2=O)cc1 (stereo not given) | inconclusive: 29.1 µM [cytotoxic, partial curve, poor fit] | 
9 | O=C(Nc1ccc(Br)cn1)C1CCN(S(=O)(=O)c2cccs2)CC1 | inconclusive: 6.51 µM [cytotoxic, partial curve] | 
10 | CSc1ccc(CN2CCCC(CO)(Cc3ccccc3)C2)cc1 (stereo not given) | inconclusive: 2.91 µM [cytotoxic, full curve] | 
11 | CS(=O)(=O)N(Cc1ccc(Cl)cc1)c1ccc(C(=O)NCCSc2ccccn2)cc1 | active: 5.8 µM | 
12 | O=C(NCc1ccc(Cl)cc1)c1ccc2c(c1)N(Cc1ccccc1F)C(=O)c1ccccc1S2=O (stereo not given) | inconclusive: 32.6 µM [cytotoxic, single point] | 
13 | CC1CCCCN1S(=O)(=O)c1ccc(C(=O)N(CCCN(C)C)c2nc3ccc(Br)cc3s2)cc1 (stereo not given) | active: 23.1 µM | 
14 | O=C(Nc1ccc(CN2CCOCC2)cc1)c1ccc(-c2cccc([N+](=O)[O-])c2)o1 | inconclusive: 29.1 µM [cytotoxic, single point] | 
15 | O=C(NCCCCl)C1CC(=O)N(CCc2ccc(F)cc2)C1 (stereo not given) | inconclusive: 29.1 µM [rising, single point] | 
16 | CCOc1cc(S(=O)(=O)N(Cc2ccccc2)Cc2ccccc2)c(OCC)cc1-n1cnnn1 | active: 3.66 µM | 
17 | COc1cnc(-c2ccccn2)nc1Sc1c(Cl)cccc1Cl | active: 2.91 µM | 
18 | COc1ccc(NC(=O)CSc2cc(C(=O)c3nccn3C)c3ccccc3n2)cc1 | inconclusive: 20.6 µM [cytotoxic, single point] | 
19 | CCC(Oc1ccccc1)C(=O)Nc1ccc(C)c(S(=O)(=O)N2CCOCC2)c1 (stereo not given) | inactive | 
20 | Cc1c(C(=O)Nc2ccccc2)csc1-c1ccccc1 | inactive | 
21 | COc1ccc(NC(=O)COc2cccc3c2CCN(Cc2cccnc2)C3=O)c(OC)c1 | active: 5.17 µM | 
22 | COC(=O)C(NC(C)=O)(Nc1nc2c(C)cc(C)cc2s1)C(F)(F)F (stereo not given) | inconclusive: 12.6 µM [cytotoxic, single point] | 
23 | COCCCNC(=O)C[C@@H]1C[C@@]2(C(=O)OC)CC(C)(C)CC=C2N(Cc2ccco2)C1=O | inconclusive: 13 µM [cytotoxic, partial curve, poor fit] | 
24 | Cc1ccccc1C(=O)Oc1ccccc1C(=O)N1CCOCC1 | inconclusive: 20.6 µM [cytotoxic, single point] | 

Copied from the list.
Cc1c(C(=O)Nc2ccccc2)csc1-c1ccccc1 | Potency: inactive
Cc1ccc(CC#N)c(-c2c(CC#N)ccc(C)c2C)c1C | Potency: inconclusive: 18.4 µM [cytotoxic, partial curve, poor fit]
COCCCNC(=O)C[C@@H]1C[C@@]2(C(=O)OC)CC(C)(C)CC=C2N(Cc2ccco2)C1=O | Potency: inconclusive: 13 µM [cytotoxic, partial curve, poor fit]

The listing continues.

Row | SMILES | Potency | activity change, negative = cytotoxicity
25 | CN(CC(=O)NCc1cccs1)S(=O)(=O)c1cccc2nsnc12 | active: 20.6 µM | 
26 | CCC(C)NC(=O)COC(=O)c1ccccc1OCC(=O)Nc1ccc(Br)cc1 (stereo not given) | inconclusive: 23.1 µM [cytotoxic, single point] | 
27 | Cn1cnnc1SCC(=O)Nc1ccc2nc(SCc3ccccc3F)sc2c1 | active: 20.6 µM | 
28 | CCN1CCN(CCNC(=O)c2ccc(/C=C3/Sc4ccccc4N(Cc4cccc(Cl)c4)C3=O)cc2)CC1 | inconclusive: 23.1 µM [cytotoxic, single point] | 
29 | O=C(CN1C(=O)C2CC=CCC2C1=O)N1CCN(c2ccc([N+](=O)[O-])cc2)CC1 (stereo not given) | inconclusive: 18.4 µM [cytotoxic, single point] | 
30 | O=C(NC1CCN(Cc2ccc3ccccc3c2)CC1)c1ccccc1 | inconclusive: 11.6 µM [cytotoxic, partial curve, poor fit] | 
31 | Cc1occc1-c1nnc(SCC(=O)Nc2ccccc2)n1Cc1ccccc1 | inconclusive: 18.4 µM [cytotoxic, single point] | 
32 | COc1ccc(NC(=O)CN2C(=O)COc3ccc(S(=O)(=O)N4CCOCC4)cc32)cc1Cl | inconclusive: 29.1 µM [rising, partial curve, poor fit] | 
33 | Brc1ccc(C2NCCS2)cc1 (stereo not given) | inconclusive: 29.1 µM [rising, single point] | 
34 | Cc1ccc(CNC(=O)c2ccc(F)c(S(=O)(=O)N3CCOCC3)c2)cc1 | inconclusive: 16.4 µM [cytotoxic, single point] | 
35 | CCOC(=O)Cn1cc(C=O)c2ccccc21 | inactive | 
36 | Cc1cc(F)ccc1N1CCC(N2CCN(CCC(C)C)C(CCO)C2)CC1 (stereo not given) | inconclusive: 9.2 µM [cytotoxic, partial curve] | 
37 | CC(C)c1ccc(OCC(=O)NNC(=S)NC(=O)C2CC2)cc1 | inconclusive: 6.51 µM [cytotoxic, full curve] | 
38 | Nc1nc(-c2ccco2)nn1C(=O)c1ccccc1 |  | inconclusive: -0.408%
39 | Cc1cn(CC(=O)N(C)Cc2ccco2)c(=O)[nH]c1=O | inactive | 
40 | COc1ccccc1-c1cc(C(F)(F)F)nc(S(=O)(=O)CCCC(=O)Nc2ccc(F)c(Cl)c2)n1 | inconclusive: 3.66 µM [rising, full curve] | 
41 | COc1cccc2[nH]c3c(N4CCC(C)CC4)ncnc3c12 | inconclusive: 4.11 µM [cytotoxic, full curve] | 
42 | CC1(C)C2CCC1(C)C(NC(=O)/C=C/c1ccccc1)C2 (stereo not given) | inactive | 
43 | COc1ccc(C(=O)N2CCC(c3c[nH]c4ccccc34)(c3c[nH]c4ccccc34)CC2)cc1 | inactive | 
44 | CC(=O)c1c(C)[nH]c(C(=O)COC(=O)CCSc2ccccc2)c1C | inconclusive: 29.1 µM [rising, single point] | 
45 | Cc1ccc(OCCCC(=O)Nc2ccc(S(=O)(=O)Nc3cc(C)nc(C)n3)cc2)cc1 | inconclusive: 18.4 µM [rising, single point] | 
46 | COc1cc(NC(=O)c2cnn3c(C(F)F)cc(C4CC4)nc23)c(OC)cc1Cl | inconclusive: 25.9 µM [rising, single point] | 
47 | CCCOc1ccc(-c2nc(C#N)c(N3CCc4ccccc4C3)o2)cc1 | active: 16.4 µM | 
48 | CC(Oc1ccc(Cl)cc1Cl)c1nc(-c2ccc(NC(=O)c3ccncc3)cc2)no1 (stereo not given) | inconclusive: 5.8 µM [cytotoxic, partial curve] | 

Of the compounds above, these have a cyano group:
Row | SMILES | Potency | activity change, negative = cytotoxicity
5 | Cc1ccc(CC#N)c(-c2c(CC#N)ccc(C)c2C)c1C | inconclusive: 18.4 µM [cytotoxic, partial curve, poor fit] | 
47 | CCCOc1ccc(-c2nc(C#N)c(N3CCc4ccccc4C3)o2)cc1 | active: 16.4 µM | 

Further structures follow.

Row | SMILES | Potency | activity change, negative = cytotoxicity
49 | CCCCOC(=O)c1ccc(NC(=O)COC(=O)C2CSC3(C)CCC(=O)N23)cc1 (stereo not given) | inconclusive: 29.1 µM [cytotoxic, single point] | 
50 | O=C(O)c1ccccc1NC(=O)c1ccccc1Nc1ccccc1 | inconclusive: 16.4 µM [cytotoxic, partial curve, poor fit] | 
51 | COc1ccc2c(=O)c3c(=O)n(CCc4ccccc4)c(C(C)C)nc3oc2c1 | inconclusive: 1.64 µM [cytotoxic, full curve] | 
52 | CC(NC(=O)COC(=O)CCN1C(=O)C2CC=CCC2C1=O)c1ccc(Br)cc1 (stereo not given) | inactive | 
53 | O=[N+]([O-])c1cccnc1Oc1cccnc1 |  | inconclusive: 0.0653%
54 | Cc1ccc(N2C(=N)SCC2=O)cc1Cl | inconclusive: 20.6 µM [cytotoxic, single point] | 
55 | O=C(CCc1ccccc1)Nc1ccc2c(c1)OCO2 | inactive | 
56 | Cc1cccc(NC(=O)c2ccc(NCC3CCCO3)c([N+](=O)[O-])c2)n1 (stereo not given) | inconclusive: 6.51 µM [cytotoxic, partial curve] | 
57 | COc1ccccc1CN(Cc1nc2ccccc2c(=O)[nH]1)C(=O)Nc1cccc(C)c1 | inconclusive: 20.6 µM [cytotoxic, partial curve, poor fit] | 
58 | Cc1c(NS(C)(=O)=O)cccc1-c1nc2ccccc2s1 | inconclusive: 32.6 µM [cytotoxic, partial curve, poor fit] | 
59 | O=C(CCl)Nc1ccc(Oc2cnc3ccccc3n2)cc1 | active: 14.6 µM | 
60 | COc1ccccc1N1CCN(C(=O)c2cc(S(=O)(=O)N3CCOCC3)ccc2C)CC1 | inactive | 
61 | CCOC(=O)c1cnc2c(ccc3ccccc32)c1Nc1ccc(OC)c(OC)c1 | inconclusive: 2.31 µM [cytotoxic, partial curve, poor fit] | 
62 | O=C(O)CCC(=O)N1N=C(c2ccccc2)CC1c1ccc2c(c1)OCO2 (stereo not given) | inactive | 
63 | COc1ccc2oc(C(=O)OCC(=O)N3CCCC(C)C3)c(C)c2c1 (stereo not given) | inconclusive: 29.1 µM [cytotoxic, single point] | 
64 | Oc1ccc(-c2cnc3c(Nc4cccc(OC(F)(F)C(F)F)c4)nccn23)cc1 | inconclusive: 23.1 µM [cytotoxic, single point] | 
65 | Cc1ccc(C(O)(C(=O)NNS(=O)(=O)c2ccc(C)cc2)c2ccc(C)cc2)cc1 | inconclusive: 18.4 µM [cytotoxic, partial curve, poor fit] | 
66 | O=c1c2cc3c(nc2ncn1Cc1ccccc1F)CCCC3 | inactive | 
67 | O=C(NCCN1CCOCC1)c1ccc(NC(=O)c2ccc(Br)o2)cc1 | inactive | 
68 | O=C(NC12CC3CC(CC(C3)C1)C2)C1CCCN1C(=O)Nc1ccccc1 (stereo not given) | inactive | 
69 | CC1CCN(C(C)C(=O)Nc2ccc(S(=O)(=O)N3CCCC3)cc2)CC1 (stereo not given) |  | inconclusive: -41.8%
70 | Cc1[nH]c2ccccc2c(=O)c1C(=O)/C=C/c1ccccc1 | active: 14.6 µM | 
